For two molecules, binding results are on record in article PMC12494973.

Results are given in words; binding and its absence hold for the method and conditions named. Binding seen in cells or lysates may run through a third protein. Some binding calls cover weakened binding; strength is not graded here. For some assays here: Sequences can lack the tags named with a protein.

Assay [1] has as its target T1, Mitochondrial carrier homolog 2 (MTCH2) (mouse (endogenous in iBAs)) (UniProt Q791V5).
T1 sequence: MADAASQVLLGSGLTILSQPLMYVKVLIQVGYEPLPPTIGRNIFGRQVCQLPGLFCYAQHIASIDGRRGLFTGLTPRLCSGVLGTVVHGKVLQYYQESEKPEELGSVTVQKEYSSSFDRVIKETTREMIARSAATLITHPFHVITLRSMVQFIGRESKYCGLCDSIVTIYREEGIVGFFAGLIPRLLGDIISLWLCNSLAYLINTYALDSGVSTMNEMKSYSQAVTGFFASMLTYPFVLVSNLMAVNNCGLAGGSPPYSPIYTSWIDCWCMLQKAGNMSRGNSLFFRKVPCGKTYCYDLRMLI
The assay can be described thus: proximity ligation; differentiated iBAs fixed with paraformaldehyde 20 min at room temperature; kit from Sigma-Aldrich; rabbit anti-MTCH2 and mouse anti-CPT1A or anti-CPT1B; incubation without antibodies as negative control.

The target in assay [2] is T2, mouse FLAG-MTCH2 (mouse) (UniProt Q791V5).
T2 sequence: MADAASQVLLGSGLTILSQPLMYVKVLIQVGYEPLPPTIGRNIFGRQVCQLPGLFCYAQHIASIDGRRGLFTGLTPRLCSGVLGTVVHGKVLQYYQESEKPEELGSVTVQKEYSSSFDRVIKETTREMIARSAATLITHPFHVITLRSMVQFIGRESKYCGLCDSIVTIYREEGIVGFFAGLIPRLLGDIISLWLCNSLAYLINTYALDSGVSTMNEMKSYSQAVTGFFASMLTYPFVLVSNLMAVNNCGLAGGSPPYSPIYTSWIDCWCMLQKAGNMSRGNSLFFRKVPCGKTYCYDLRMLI
In words: co-IP; HEK293T cells overexpressing mouse FLAG-MTCH2; whole cell lysate in RIPA buffer (50 mM Tris-HCl pH 7.4, 150 mM NaCl, 2 mM EDTA, 1.0% Triton X-100); anti-FLAG beads overnight at 4 °C; blots for FLAG, CPT1a, CPT1b.

B1: Carnitine palmitoyltransferase 1B (CPT1B) (enzyme, UniProt Q924X2 1-772)
chain: MAEAHQAVAFQFTVTPDGVDFRLSREALRHIYLSGINSWKKRLIRIKNGILRGVYPGSPTSWLVVVMATVGSNYCKVDISMGLVDCIQRCLPERYGHFGTPQTEALLSMVIFSTGVWATGIFFFRQTLKLLLSYHGWMFEMHSKTSHATKIWAICVRLLSSRRPMLYSFQTSLPKLPVPSVPATIHRYLDSVRPLLDDEAYYRMETLAKEFQDKTAPRLQKYLVLKSWWATNYVSDWWEEYVYLRSRSPLMVNSNYYAMDFVLIKNTNVQAARLGNAVHAMIMYRRKLDREEIKPVMALGMVPMCSYQMERMFNTTRIPGKETDLLQHLSESRHVAVYHKGRFFKVWLYEGSRLLKPRDLEMQFQRILDDPSPPQPGEEKLAALTAGGRVEWAEARQTFFSSGKNKMSLDAIERAAFFVTLDEDSHCYNPDDETSLSLYGKALLHGNCYNRWFDKSFTLISCKNGLLGLNTEHSWADAPIIGHLWEFVLGTDTFHLGYTETGHCVGEPNTTLPPPQRLPWDIPEQCREAIENSYQVAKALADDVELYCFQFLPFGKGLIKKCRTSPDAFVQIALQLAHFRDKGKFCLTYEASMTRMFREGRTETVRSCTNESAAFVQAMMKGSHKKQDLQDLFRKASEKHQNMYRLAMTGAGIDRHLFCLYIVSKYLGVSSPFLAEVLSEPWSLSTSQIPQFQICMFDPKQYPNHLGAGGGFGPVADDGYGVSYMIAGENTMFFHISSKYSSSETNAQRFGNHIRQALLDIAELFKISKTDS
Take B1: in assay [1], the binding result is recorded as “binds”.

B2: CPT1B in HEK293T whole cell extract (enzyme, UniProt Q92523 1-772)
chain: MAEAHQAVAFQFTVTPDGVDFRLSREALKHVYLSGINSWKKRLIRIKNGILRGVYPGSPTSWLVVIMATVGSSFCNVDISLGLVSCIQRCLPQGCGPYQTPQTRALLSMAIFSTGVWVTGIFFFRQTLKLLLCYHGWMFEMHGKTSNLTRIWAMCIRLLSSRHPMLYSFQTSLPKLPVPRVSATIQRYLESVRPLLDDEEYYRMELLAKEFQDKTAPRLQKYLVLKSWWASNYVSDWWEEYIYLRGRSPLMVNSNYYVMDLVLIKNTDVQAARLGNIIHAMIMYRRKLDREEIKPVMALGIVPMCSYQMERMFNTTRIPGKDTDVLQHLSDSRHVAVYHKGRFFKLWLYEGARLLKPQDLEMQFQRILDDPSPPQPGEEKLAALTAGGRVEWAQARQAFFSSGKNKAALEAIERAAFFVALDEESYSYDPEDEASLSLYGKALLHGNCYNRWFDKSFTLISFKNGQLGLNAEHAWADAPIIGHLWEFVLGTDSFHLGYTETGHCLGKPNPALAPPTRLQWDIPKQCQAVIESSYQVAKALADDVELYCFQFLPFGKGLIKKCRTSPDAFVQIALQLAHFRDRGKFCLTYEASMTRMFREGRTETVRSCTSESTAFVQAMMEGSHTKADLRDLFQKAAKKHQNMYRLAMTGAGIDRHLFCLYLVSKYLGVSSPFLAEVLSEPWRLSTSQIPQSQIRMFDPEQHPNHLGAGGGFGPVADDGYGVSYMIAGENTIFFHISSKFSSSETNAQRFGNHIRKALLDIADLFQVPKAYS
Consider B2, for which, in assay [2], the binding result is on record as “binds”.
